Values quoted from earlier work, collected in PMC11345841, “Exploring 2-Sulfonylpyrimidine Warheads as Acrylamide Surrogates for Targeted Covalent Inhibition: A BTK Story” (Journal of Medicinal Chemistry, 2024).
Read-outs that look alike come from different tables or passages of the source. This continues a long series; more values of the same kind are listed elsewhere.

System: 468 human kinases
Conditions: cited from earlier work; for %Control: @1000nM, ref Buhimschi et al. 2018; for Percent of Control: ref Buhimschi/Crews

In the case of `C=CC(=O)N1CCC[C@@H](n2nc(-c3ccc(Oc4ccccc4)cc3)c3c(N)ncnc32)C1` [Compound 1g, Ibrutinib], the “%Control” value (ABL1(F317I)-phosphorylated) is given as 67%, the “%Control” value (ABL1(H396P)-phosphorylated) is given as 77% and the “%Control” value (ABL1(T315I)-phosphorylated) is given as 99%. For the same molecule, the “%Control” value (ABL1(Y253F)-phosphorylated) was 49%, the “%Control” value (AXL) was 73% and the “%Control” value (BLK) was 0.1%. The “%Control” value (CSF1R) was 98%, the “%Control” value (CTK) was 66% and the “%Control” value (DDR1) was 90%. For the same molecule, the “%Control” value (EPHA3) was 89%, the “%Control” value (EPHA4) was 100% and the “%Control” value (EPHA6) was 100%. For the same molecule, the “%Control” value (EPHB1) was 99%, the “%Control” value (ERBB4) was 0% and the “%Control” value (FLT1) was 61%. The “%Control” value (FLT3(ITD)) was 55%, the “%Control” value (FLT3(ITD,D835V)) was 58% and the “%Control” value (KIT(D816V)) was 97%. The “%Control” value (KIT-autoinhibited) was 86%, the “%Control” value (LTK) was 91% and the “%Control” value (MST1R) was 89%. For the same molecule, the “%Control” value (RET(V804L)) was 93%, the “%Control” value (SRMS) was 0% and the “%Control” value (TRKA) was 67%. The “%Control” value (TYK2(JH2domain-pseudokinase)) was 69%, the “%Control” value (VEGFR2) was 59% and the “Percent of Control” value (FLT1) was 61%. For the same molecule, the “Percent of Control” value (JAK3(JH1domain-catalytic)) was 0% and the “Percent of Control” value (TIE1) was 61%.
